Article PMC8555793

B1: Pet127-HA (PET127-6xHA) (protein, UniProt P32606 1-800)
chain: MGFYNCRFLSRRLSVEPCRIGSAAKSYQQRSIYHFGAALTNAPSGRETPDKLRSDLHSALEMVDEIYDTNSTVEDIGNKEKGGRQKYTEEMDKAINLLKTNIKKEYRHDKYLERTKVGTYPGRRTYPGRRTYPARRTYPASRTYSDSNSYTFRINVQKIRHALVRYNQDGVQKHNQKPPRIGHGLTRVLYQPLSLQKLRDNRSRMYNFDPAVENINPEYLEKKSEKDVNTDSSGEGQSKPIFITPHKDESLLKVAKEHRKKYISSSSSMTSVLSQLHYLLSNFRRLNIIDSSISKNFPQKNCNYSESAYFPSAVILRKKRNGICSIDSDRSLDREIVLSVLGHYLEDFLTEKSLKNSSKSENYHYSSIDEFIVRSQLDAYDPNLPGTGVFDLKTRAVSAIRYDLSHVESNNNQTGYEIDKVYGEFESLEREYFELIRSALLKYSLQARIGKMDGIFVAYHNISKMFGFQYLPLDELDYIIHSSYNSKFDSLLKEKNDITKGIYGEEDYILHYDRDDRKIACLVANREFKMSMNLFSNILKHVEQLLNSSNTKWEKCKIMLKTEVEEKRSKSGRFFNEPVLNIVALPLSPEYEDKSLLVKDTSNEQLTEELLNLRSYNENLLEEHLNSLVGFKVNVKHFYHHHPNTTHLPDFALKKNDILDTESRKYISDMMKRDWYKDIPSTQTPNFFHASDVSTWEVNSTFTDINDKQILRKLYFKYLDVKLNALKNQVITRQEPDMSKKDEIMNRIKSLQARNDHRDNGSNKRYSNFGPTRLQTKLRAYAKKGALRRKLLERSNKFHI
B2: 6xHis-Pet127^48-800 (protein, UniProt P32606 48-800)
chain: TPDKLRSDLHSALEMVDEIYDTNSTVEDIGNKEKGGRQKYTEEMDKAINLLKTNIKKEYRHDKYLERTKVGTYPGRRTYPGRRTYPARRTYPASRTYSDSNSYTFRINVQKIRHALVRYNQDGVQKHNQKPPRIGHGLTRVLYQPLSLQKLRDNRSRMYNFDPAVENINPEYLEKKSEKDVNTDSSGEGQSKPIFITPHKDESLLKVAKEHRKKYISSSSSMTSVLSQLHYLLSNFRRLNIIDSSISKNFPQKNCNYSESAYFPSAVILRKKRNGICSIDSDRSLDREIVLSVLGHYLEDFLTEKSLKNSSKSENYHYSSIDEFIVRSQLDAYDPNLPGTGVFDLKTRAVSAIRYDLSHVESNNNQTGYEIDKVYGEFESLEREYFELIRSALLKYSLQARIGKMDGIFVAYHNISKMFGFQYLPLDELDYIIHSSYNSKFDSLLKEKNDITKGIYGEEDYILHYDRDDRKIACLVANREFKMSMNLFSNILKHVEQLLNSSNTKWEKCKIMLKTEVEEKRSKSGRFFNEPVLNIVALPLSPEYEDKSLLVKDTSNEQLTEELLNLRSYNENLLEEHLNSLVGFKVNVKHFYHHHPNTTHLPDFALKKNDILDTESRKYISDMMKRDWYKDIPSTQTPNFFHASDVSTWEVNSTFTDINDKQILRKLYFKYLDVKLNALKNQVITRQEPDMSKKDEIMNRIKSLQARNDHRDNGSNKRYSNFGPTRLQTKLRAYAKKGALRRKLLERSNKFHI
B3: Pet127 amino acids 48–215 (pET15b-Pet127-N504-6xHis) (domain or fragment, UniProt P32606 48-215)
chain: TPDKLRSDLHSALEMVDEIYDTNSTVEDIGNKEKGGRQKYTEEMDKAINLLKTNIKKEYRHDKYLERTKVGTYPGRRTYPGRRTYPARRTYPASRTYSDSNSYTFRINVQKIRHALVRYNQDGVQKHNQKPPRIGHGLTRVLYQPLSLQKLRDNRSRMYNFDPAVENI
B4: Pet127-nd (pet127-nd-6xHA) (protein, UniProt P32606 1-800)
chain: B1 chain with E346A, D378A, D391A, K393A
B5: Pet127^1-215 (pet127(1–215)-6xHA) (domain or fragment, UniProt P32606 1-215)
chain: MGFYNCRFLSRRLSVEPCRIGSAAKSYQQRSIYHFGAALTNAPSGRETPDKLRSDLHSALEMVDEIYDTNSTVEDIGNKEKGGRQKYTEEMDKAINLLKTNIKKEYRHDKYLERTKVGTYPGRRTYPGRRTYPARRTYPASRTYSDSNSYTFRINVQKIRHALVRYNQDGVQKHNQKPPRIGHGLTRVLYQPLSLQKLRDNRSRMYNFDPAVENI
B6: Pet127 amino acids 213–800 (pET15b-Pet127-C1764-6xHis) (domain or fragment, UniProt P32606 213-800)
chain: ENINPEYLEKKSEKDVNTDSSGEGQSKPIFITPHKDESLLKVAKEHRKKYISSSSSMTSVLSQLHYLLSNFRRLNIIDSSISKNFPQKNCNYSESAYFPSAVILRKKRNGICSIDSDRSLDREIVLSVLGHYLEDFLTEKSLKNSSKSENYHYSSIDEFIVRSQLDAYDPNLPGTGVFDLKTRAVSAIRYDLSHVESNNNQTGYEIDKVYGEFESLEREYFELIRSALLKYSLQARIGKMDGIFVAYHNISKMFGFQYLPLDELDYIIHSSYNSKFDSLLKEKNDITKGIYGEEDYILHYDRDDRKIACLVANREFKMSMNLFSNILKHVEQLLNSSNTKWEKCKIMLKTEVEEKRSKSGRFFNEPVLNIVALPLSPEYEDKSLLVKDTSNEQLTEELLNLRSYNENLLEEHLNSLVGFKVNVKHFYHHHPNTTHLPDFALKKNDILDTESRKYISDMMKRDWYKDIPSTQTPNFFHASDVSTWEVNSTFTDINDKQILRKLYFKYLDVKLNALKNQVITRQEPDMSKKDEIMNRIKSLQARNDHRDNGSNKRYSNFGPTRLQTKLRAYAKKGALRRKLLERSNKFHI

Legend:
[1] = target: V5-Rpo41 (RPO41preseq-3xV5-RPO41) (S. cerevisiae); assay: co-IP; yeast lysates in NP40 buffer (50mM Tris pH7.5, 150mM NaCl, 1% Np40), 0.2% BSA; V5-Rpo41 precipitated with anti-V5 agarose beads, 2 hours at 4C; blotted for HA and V5
[2] = target: GST-Rpo41 (S. cerevisiae); assay: pull-down; bacterial lysates; GST-Rpo41 or GST bound to glutathione beads and washed, then equal amounts of lysate with the Pet127 construct added, 2h at 4°C; washed with NP40 buffer + 0.3% BSA; immunoblot; only the target purified

Binder | binding [1] | binding [2]
B1 | binds | –
B2 | – | binds
B3 | – | binds
B4 | binds | –
B5 | binds | –
B6 | – | no binding

Changes are numbered by the printed parent chain. Results are given in words; binding and its absence hold for the method and conditions named. In cells and extracts the contact can be indirect. Binding calls can cover weak binding; strength is not graded here. Tags and fused reporters may be left off the sequences shown.
